Measurements taken from publication PMC5703946.

The chains behind the UniProt entries cited, without tags or fusion partners. Where a name states a change or a piece, a line headed by the entry shows the natural chain unless it says otherwise.
UniProt F8QWU9: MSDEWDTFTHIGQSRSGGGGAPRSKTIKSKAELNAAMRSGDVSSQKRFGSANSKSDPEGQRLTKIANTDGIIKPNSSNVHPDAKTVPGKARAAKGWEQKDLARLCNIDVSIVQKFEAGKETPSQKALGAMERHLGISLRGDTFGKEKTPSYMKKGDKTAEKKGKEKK

Molecular target: T1, His-yTBP (yeast TATA-box-binding protein) (S. cerevisiae) (UniProt P13393)
T1 sequence: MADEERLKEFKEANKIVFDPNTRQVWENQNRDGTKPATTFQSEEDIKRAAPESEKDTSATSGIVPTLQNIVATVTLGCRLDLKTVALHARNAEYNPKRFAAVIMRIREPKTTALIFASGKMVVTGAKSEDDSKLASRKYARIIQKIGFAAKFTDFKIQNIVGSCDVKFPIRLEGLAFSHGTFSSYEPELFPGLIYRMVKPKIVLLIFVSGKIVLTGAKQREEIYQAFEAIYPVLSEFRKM
Assay: pull-down; His-yTBP held on Ni-NTA agarose beads (from soluble E. coli lysate, washed three times); equal amounts of purified GST-MBF1 proteins or purified GST incubated with the beads for 4 h at 4 °C; beads washed three times; detected by immunoblot (Wes) with anti-His and anti-GST antibodies; both purified

Row | binding | Substance
1 | binds | GST-EpMBF1 (Endocarpon pusillum multiprotein-bridging factor 1) (from UniProt F8QWU9)
2 | binds | GST-EpMBF1^K114D (Endocarpon pusillum)

Results are given in words; binding and its absence hold for the method and conditions named. In cells and extracts the contact can be indirect. Binding calls can cover weak binding; strength is not graded here. Sequences can lack the tags named with a protein.
